Values from PubChem BioAssay AID720505 (Drosophila RNAi Screening Center, 2013).
In all, the deposit lists about 20,000 reagents; this is an unselected part of those that have a named target and a result. In the full data, about 2,100 (10%) are marked active. 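Raw plate signals without normalisation; calls rest on control-based scores that were not deposited; replicate 2 separates called from uncalled poorly.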 Not given: the amount of reagent, the time to read-out.

- Purpose: 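Fly regulators or components of the CRAC channel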 (primary screen)
- System: Drosophila S2R+ cells
- Reagents: long dsRNA against Drosophila genes
- Treatment: thapsigargin (2 µM) in calcium-free buffer to empty internal stores, then 2 mM calcium added back
- Measured: 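Fluo-4 signal in 384-well plates read on a FLIPR after thapsigargin (2 µM, calcium-free) store depletion and 2 mM calcium add-back; unnormalised mean endpoint per well; screen run twice, selected wells retested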
- Reading the numbers: calcium signal and retest calcium signal: higher = more calcium entry after store depletion
- Hit rule: 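Knock-downs counted as hits when calcium entry dropped relative to STIM1 positive and Rho1 negative controls present on each plate; roughly 1500 genes called, with reductions of differing size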
- Calls: active = called as lowering calcium entry; inactive = not called

no.	gene	DRSC id	calcium signal, replicate 1	calcium signal, replicate 2	retest calcium signal, replicate 1	retest calcium signal, replicate 2	Call
1	CG43980	DRSC11646	122	143			inactive
2	CG43980	DRSC22923	119	131			inactive
3	hid	DRSC11316	93.5	210			inactive
4	Tdc2	DRSC04999	99.2	160			inactive
5	Ntmt	DRSC06624	108	219			inactive
6	CG12948	DRSC14576	165	76.3			inactive
7	CG10041	DRSC14179	70.2	130			active
8	TwdlF	DRSC12225	138	83.6			inactive
9	sqh	DRSC18837	133	102			inactive
10	CG32564	DRSC19933	110	110			inactive
11	CG15136	DRSC02436	113	150			inactive
12	CG5078	DRSC11762	99	179			inactive
13	kipf	DRSC15446	108	143	6193	131	inactive
14	kipf	DRSC22871	54.4	72.8			active
15	CG6966	DRSC16156	152	207			inactive
16	ox	DRSC07520	74.2	190			inactive
17	Seipin	DRSC18654	95	138			inactive
18	CG13937	DRSC08406	135	160			inactive
19	RtcB	DRSC03280	162	88.6			inactive
20	CG34210	DRSC04579	95.5	145			inactive
21	AANATL2	DRSC03227	192	87.5			inactive
22	CG14204	DRSC19559	73.1	148			active
23	lncRNA:CR32385	DRSC22966	95.3	164			inactive
24	CdGAPr	DRSC03289	105	89.8			inactive
25	scro	DRSC17102	120	155			inactive
26	Sply	DRSC07299	89.7	162			inactive
27	spz5	DRSC08645	50.7	152			active
28	wge	DRSC15246	203	276			inactive
29	wge	DRSC15672	136	110			inactive
30	wgn	DRSC19998	77.6	106			inactive
31	Nxt1	DRSC04630	120	137			inactive
32	CG4271	DRSC00649	156	145			inactive
33	Sfxn2	DRSC10718	76	170			inactive
34	CG6333	DRSC10626	101	143			inactive

A stretch of the results above, for reference:
no.	gene	DRSC id	calcium signal, replicate 1	calcium signal, replicate 2	retest calcium signal, replicate 1	retest calcium signal, replicate 2	Call
15	CG6966	DRSC16156	152	207			inactive
16	ox	DRSC07520	74.2	190			inactive
17	Seipin	DRSC18654	95	138			inactive
18	CG13937	DRSC08406	135	160			inactive
19	RtcB	DRSC03280	162	88.6			inactive
